Source: patent US20150258143A1
These are yes or no findings as the source states them, for the method shown. Binding seen in cells or lysates may run through a third protein. Some binding calls cover weakened binding; strength is not graded here.

Chains of the proteins cited; added tags and fusions are not shown. Residues count along the entry.
UniProt P39688, residues 2-537: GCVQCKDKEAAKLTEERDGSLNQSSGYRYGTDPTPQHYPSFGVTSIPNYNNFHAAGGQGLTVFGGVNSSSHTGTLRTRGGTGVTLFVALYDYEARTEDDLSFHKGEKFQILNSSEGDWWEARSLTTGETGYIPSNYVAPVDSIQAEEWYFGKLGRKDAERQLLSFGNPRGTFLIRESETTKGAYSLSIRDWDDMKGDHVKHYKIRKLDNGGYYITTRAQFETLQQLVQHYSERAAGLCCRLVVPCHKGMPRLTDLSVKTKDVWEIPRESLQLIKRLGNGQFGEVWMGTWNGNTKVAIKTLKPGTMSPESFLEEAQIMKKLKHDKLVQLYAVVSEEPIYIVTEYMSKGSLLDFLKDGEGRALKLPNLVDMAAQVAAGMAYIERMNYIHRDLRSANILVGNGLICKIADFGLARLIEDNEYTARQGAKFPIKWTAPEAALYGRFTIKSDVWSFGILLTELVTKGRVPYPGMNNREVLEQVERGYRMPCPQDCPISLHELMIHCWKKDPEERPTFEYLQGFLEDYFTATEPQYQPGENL

Biological target: T1, ADAP (mouse) (UniProt O35601)
T1 sequence: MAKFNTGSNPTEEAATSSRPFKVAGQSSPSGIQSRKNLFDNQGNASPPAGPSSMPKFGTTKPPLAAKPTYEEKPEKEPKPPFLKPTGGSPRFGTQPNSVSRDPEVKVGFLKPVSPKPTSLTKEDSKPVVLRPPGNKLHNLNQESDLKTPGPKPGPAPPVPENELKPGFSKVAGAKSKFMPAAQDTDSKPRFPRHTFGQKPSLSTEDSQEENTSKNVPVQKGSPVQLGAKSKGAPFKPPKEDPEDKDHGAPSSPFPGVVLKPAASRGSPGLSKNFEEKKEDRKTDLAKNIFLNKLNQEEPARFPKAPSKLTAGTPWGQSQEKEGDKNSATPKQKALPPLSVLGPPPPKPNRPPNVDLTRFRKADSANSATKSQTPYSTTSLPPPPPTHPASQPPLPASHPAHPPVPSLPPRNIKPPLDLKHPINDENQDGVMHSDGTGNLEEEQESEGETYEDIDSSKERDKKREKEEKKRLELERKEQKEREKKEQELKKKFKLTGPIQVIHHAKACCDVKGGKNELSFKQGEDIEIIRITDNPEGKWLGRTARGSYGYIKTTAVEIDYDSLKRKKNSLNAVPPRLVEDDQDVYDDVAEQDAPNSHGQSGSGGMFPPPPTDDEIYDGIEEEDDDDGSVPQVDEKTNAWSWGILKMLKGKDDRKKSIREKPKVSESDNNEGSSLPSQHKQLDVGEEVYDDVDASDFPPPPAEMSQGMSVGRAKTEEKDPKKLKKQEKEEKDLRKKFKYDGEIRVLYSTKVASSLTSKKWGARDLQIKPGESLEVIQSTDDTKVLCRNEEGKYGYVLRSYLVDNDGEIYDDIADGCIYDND
Assay: co-immunoprecipitation from NK cell lysates after CD137-mediated activation (blots of FIG. 13)

binding: binds
Substance: Fyn (from UniProt P39688 2-537) (enzyme)
